The assay deals with Peroxisome proliferator-activated receptor δ (PPARδ) (rat (endogenous in H9c2)) (UniProt Q62879). In words: co-IP; nuclear protein fraction of H9c2 cells (supplemented with benzonase) precipitated with anti-PPARδ antibody, western blot with anti-Bcl6 antibody; cells pre-treated with or without L-165041 (10 µmol/L, 2 h), then with or without doxorubicin 0.1 µM or 1 µM (3 h), analysed after 24 h.

Sequences of proteins named here, by UniProt entry; tags and fusion partners are left off. A change or cut given only in a name is not applied to a line headed by its entry.
UniProt Q62879: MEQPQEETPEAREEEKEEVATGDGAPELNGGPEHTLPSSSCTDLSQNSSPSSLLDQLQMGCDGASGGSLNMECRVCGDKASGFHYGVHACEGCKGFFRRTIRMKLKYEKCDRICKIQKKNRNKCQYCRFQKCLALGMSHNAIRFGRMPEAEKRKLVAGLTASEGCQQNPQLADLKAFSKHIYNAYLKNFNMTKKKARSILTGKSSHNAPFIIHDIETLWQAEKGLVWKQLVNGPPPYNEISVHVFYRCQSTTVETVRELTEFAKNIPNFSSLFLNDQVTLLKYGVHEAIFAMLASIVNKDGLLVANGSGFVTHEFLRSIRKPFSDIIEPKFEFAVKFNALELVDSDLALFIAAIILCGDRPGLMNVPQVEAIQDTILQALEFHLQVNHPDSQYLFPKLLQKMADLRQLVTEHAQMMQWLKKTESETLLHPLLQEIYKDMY

The record followed here is article PMC3458009.

Results are given in words; binding and its absence hold for the method and conditions named. In cells and extracts the contact can be indirect. Some results given as binding are weak or reduced against the parent protein; the word gives no strength.

As to “B cell lymphoma-6 (Bcl6) (from UniProt F7FPB9 1-707)”, the binding entry was “binds”.
